# Measured values published in patent publication US20170305883A1, “Compositions and Methods for Inhibiting BMP” (THE BRIGHAM AND WOMEN'S HOSPITAL, INC., priority 2014, published 2017).
# Some results come without the dose or concentration used.
# Tested on: BMP6
# Assay: Ligand induced transcriptional activity assay (BRE-Luc)
# Type: cell-based
# Conditions: TGFβ1 IC50 versus BMP6 IC50
row,Structure (SMILES),Fold Select.
1,"COc1cc(-c2cc(-c3ccc(O)cc3)cnc2N)cc(OC)c1OC [Compound 11, 4-(6-Amino-5-(3,4,5-trimethoxyphenyl)pyridin-3-yl)phenol]",28
2,"COc1cc(-c2cnc(N)c(-c3cc(OC)c(OC)c(OC)c3)c2)ccc1O [Compound 12, 4-(6-amino-5-(3,4,5-trimethoxyphenyl)pyridin-3-yl)-2-methoxyphenol]",28
3,"COc1ccc(-c2cc(-c3ccc(N4CCNCC4)cc3)cnc2N)cc1 [Compound 20, 3-(4-methoxyphenyl)-5-(4-(piperazin-1-yl)phenyl)pyridin-2-amine]",48
4,"CNc1ncc(-c2ccc(N3CCNCC3)cc2)cc1-c1cc(OC)c(OC)c(OC)c1 [Compound 24, N-methyl-5-(4-(piperazin-1-yl)phenyl)-3-(3,4,5-trimethoxyphenyl)pyridin-2-amine]",99
5,"COc1cc(-c2cc(-c3ccc(N4CCNCC4)cc3)cnc2N(C)C)cc(OC)c1OC [Compound 25, N,N-dimethyl-5-(4-(piperazin-1-yl)phenyl)-3-(3,4,5-trimethoxyphenyl)pyridin-2-amine]",68
6,"COc1cc(-c2cc(-c3ccc(N4CCNCC4)cc3)cnc2Cl)cc(OC)c1OC [Compound 27, 1-(4-(6-chloro-5-(3,4,5-trimethoxyphenyl)pyridin-3-yl)phenyl)piperazine]",244
7,"COc1cc(-c2cc(-c3ccc(N4CCNCC4)cc3)cnc2OC)cc(OC)c1OC [Compound 28, 1-(4-(6-methoxy-5-(3,4,5-trimethoxyphenyl)pyridin-3-yl)phenyl)piperazine]",48
8,"COc1cc(OC)cc(-c2cncc(-c3ccc(N4CCNCC4)cc3)c2)c1 [Compound 33, 1-(4-(5-(3,5-dimethoxyphenyl)pyridin-3-yl)phenyl)piperazine]",102
